For test [1], the target named is Mtb PknG secreted by M. tuberculosis H37Rv in infected U937 cells (Mycobacterium tuberculosis H37Rv) (UniProt P9WI73). The experiment in a line: co-IP.
Test [2] deals with GFP-tagged Mtb PknG (HEK293T) (Mycobacterium tuberculosis) (UniProt P9WI73). The experiment in a line: co-IP.

No constants are given. Whether binding was seen depends on the method and setting. Binding seen in cells or lysates may run through a third protein. Some entries that bind do so weakly or less than the wild type.

B1: TAB3 (endogenous, U937 cells) (protein, UniProt Q8N5C8 1-712)
chain: MAQSSPQLDIQVLHDLRQRFPEIPEGVVSQCMLQNNNNLEACCRALSQESSKYLYMEYHSPDDNRMNRNRLLHINLGIHSPSSYHPGDGAQLNGGRTLVHSSSDGHIDPQHAAGKQLICLVQEPHSAPAVVAATPNYNPFFMNEQNRSAATPPSQPPQQPSSMQTGMNPSAMQGPSPPPPPPSYMHIPRYSTNPITVTVSQNLPSGQTVPRALQILPQIPSNLYGSPGSIYIRQTSQSSSGRQTPQSTPWQSSPQGPVPHYSQRPLPVYPHQQNYQPSQYSPKQQQIPQSAYHSPPPSQCPSPFSSPQHQVQPSQLGHIFMPPSPSTTPPHPYQQGPPSYQKQGSHSVAYLPYTASSLSKGSMKKIEITVEPSQRPGTAINRSPSPISNQPSPRNQHSLYTATTPPSSSPSRGISSQPKPPFSVNPVYITYTQPTGPSCTPSPSPRVIPNPTTVFKITVGRATTENLLNLVDQEERSAAPEPIQPISVIPGSGGEKGSHKYQRSSSSGSDDYAYTQALLLHQRARMERLAKQLKLEKEELERLKSEVNGMEHDLMQRRLRRVSCTTAIPTPEEMTRLRSMNRQLQINVDCTLKEVDLLQSRGNFDPKAMNNFYDNIEPGPVVPPKPSKKDSSDPCTIERKARRISVTSKVQADIHDTQAAAADEHRTGSTQSPRTQPRDEDYEGAPWNCDSCTFLNHPALNRCEQCEMPRYT
For the molecule B1, in test [1], the binding result was “no binding”.

B2: TAB3 (HEK293T cells) (protein, UniProt Q8N5C8 1-712)
chain: B1 chain
B2: the binding result in test [2] was “no binding”.

B3: TAK1 (endogenous, U937 cells) (enzyme, UniProt O43318 1-606)
chain: MSTASAASSSSSSSAGEMIEAPSQVLNFEEIDYKEIEVEEVVGRGAFGVVCKAKWRAKDVAIKQIESESERKAFIVELRQLSRVNHPNIVKLYGACLNPVCLVMEYAEGGSLYNVLHGAEPLPYYTAAHAMSWCLQCSQGVAYLHSMQPKALIHRDLKPPNLLLVAGGTVLKICDFGTACDIQTHMTNNKGSAAWMAPEVFEGSNYSEKCDVFSWGIILWEVITRRKPFDEIGGPAFRIMWAVHNGTRPPLIKNLPKPIESLMTRCWSKDPSQRPSMEEIVKIMTHLMRYFPGADEPLQYPCQYSDEGQSNSATSTGSFMDIASTNTSNKSDTNMEQVPATNDTIKRLESKLLKNQAKQQSESGRLSLGASRGSSVESLPPTSEGKRMSADMSEIEARIAATTAYSKPKRGHRKTASFGNILDVPEIVISGNGQPRRRSIQDLTVTGTEPGQVSSRSSSPSVRMITTSGPTSEKPTRSHPWTPDDSTDTNGSDNSIPMAYLTLDHQLQPLAPCPNSKESMAVFEQHCKMAQEYMKVQTEIALLLQRKQELVAELDQDEKDQQNTSRLVQEHKKLLDENKSLSTYYQQCKKQLEVIRSQQQKRQGTS
In the case of B3, in test [1], the binding result was “binds”.

B4: TAK1 (HEK293T cells) (enzyme, UniProt O43318 1-606)
chain: B3 chain
With B4, the binding entry in test [2] is “binds”.

B5: TAB2 (endogenous, U937 cells) (protein, UniProt Q9NYJ8 1-693)
chain: MAQGSHQIDFQVLHDLRQKFPEVPEVVVSRCMLQNNNNLDACCAVLSQESTRYLYGEGDLNFSDDSGISGLRNHMTSLNLDLQSQNIYHHGREGSRMNGSRTLTHSISDGQLQGGQSNSELFQQEPQTAPAQVPQGFNVFGMSSSSGASNSAPHLGFHLGSKGTSSLSQQTPRFNPIMVTLAPNIQTGRNTPTSLHIHGVPPPVLNSPQGNSIYIRPYITTPGGTTRQTQQHSGWVSQFNPMNPQQVYQPSQPGPWTTCPASNPLSHTSSQQPNQQGHQTSHVYMPISSPTTSQPPTIHSSGSSQSSAHSQYNIQNISTGPRKNQIEIKLEPPQRNNSSKLRSSGPRTSSTSSSVNSQTLNRNQPTVYIAASPPNTDELMSRSQPKVYISANAATGDEQVMRNQPTLFISTNSGASAASRNMSGQVSMGPAFIHHHPPKSRAIGNNSATSPRVVVTQPNTKYTFKITVSPNKPPAVSPGVVSPTFELTNLLNHPDHYVETENIQHLTDPTLAHVDRISETRKLSMGSDDAAYTQALLVHQKARMERLQRELEIQKKKLDKLKSEVNEMENNLTRRRLKRSNSISQIPSLEEMQQLRSCNRQLQIDIDCLTKEIDLFQARGPHFNPSAIHNFYDNIGFVGPVPPKPKDQRSIIKTPKTQDTEDDEGAQWNCTACTFLNHPALIRCEQCEMPRHF
For the molecule B5, in test [1], the binding entry is “no binding”.

B6: TAB2 (HEK293T cells) (protein, UniProt Q9NYJ8 1-693)
chain: B5 chain
As for B6, in test [2], the binding entry is recorded as “no binding”.

These data come from doi:10.1101/2020.11.05.370551.
